These are yes or no findings as the source states them, for the method shown.
Target: recombinant TdfJ on the surface of E. coli (Neisseria gonorrhoeae)
Test: far-Western, overlay or dot blot; competition: whole cells on nitrocellulose probed with S100A7-HRP with simultaneous addition of 10-fold molar excess of unlabeled human S100A7, mouse S100A7 or S100A12, colorimetric detection; only the binder purified

B1: mouse S100A7 (protein, UniProt Q6S5I3 1-108)
chain: MPDTPVEDSLFQIIHCFHHYAAREGDKETLSLEELKALLLDSVPRFMDTLGRRQPYYITELFRAADKNKDNQICFDEFLYILGKLVKDYHLQFHRQLCAHYCTEHSLY
- binding: no binding (tested: 10-fold molar excess over S100A7-HRP)
